Data reported in paper PMC5290407.
Results are given in words; binding and its absence hold for the method and conditions named. Binding seen in cells or lysates may run through a third protein. Some results given as binding are weak or reduced against the parent protein; the word gives no strength. Sequences can lack the tags named with a protein. One block for each molecule: values may come before it.

Amino acid sequences for entries named in this document (tags omitted).
UniProt Q96B97: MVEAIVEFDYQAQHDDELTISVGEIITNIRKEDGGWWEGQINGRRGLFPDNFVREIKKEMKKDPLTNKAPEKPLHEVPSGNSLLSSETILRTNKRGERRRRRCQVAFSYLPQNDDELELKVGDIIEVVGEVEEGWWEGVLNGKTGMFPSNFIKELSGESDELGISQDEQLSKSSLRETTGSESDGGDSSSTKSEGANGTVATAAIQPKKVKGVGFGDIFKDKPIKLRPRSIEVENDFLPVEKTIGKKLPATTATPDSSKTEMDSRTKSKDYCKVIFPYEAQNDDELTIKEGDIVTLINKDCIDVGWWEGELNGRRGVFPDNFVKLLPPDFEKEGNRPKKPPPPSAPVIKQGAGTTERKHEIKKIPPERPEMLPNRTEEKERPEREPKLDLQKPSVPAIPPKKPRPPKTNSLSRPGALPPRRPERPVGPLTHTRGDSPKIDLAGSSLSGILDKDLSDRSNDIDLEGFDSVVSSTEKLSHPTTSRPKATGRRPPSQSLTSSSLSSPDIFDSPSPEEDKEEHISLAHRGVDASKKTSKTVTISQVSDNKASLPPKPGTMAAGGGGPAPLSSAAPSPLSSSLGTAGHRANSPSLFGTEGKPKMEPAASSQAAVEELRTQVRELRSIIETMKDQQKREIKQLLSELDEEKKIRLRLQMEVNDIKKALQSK

Biological target: T1, UGT1A9-myc/his (human) (UniProt O60656)
T1 sequence: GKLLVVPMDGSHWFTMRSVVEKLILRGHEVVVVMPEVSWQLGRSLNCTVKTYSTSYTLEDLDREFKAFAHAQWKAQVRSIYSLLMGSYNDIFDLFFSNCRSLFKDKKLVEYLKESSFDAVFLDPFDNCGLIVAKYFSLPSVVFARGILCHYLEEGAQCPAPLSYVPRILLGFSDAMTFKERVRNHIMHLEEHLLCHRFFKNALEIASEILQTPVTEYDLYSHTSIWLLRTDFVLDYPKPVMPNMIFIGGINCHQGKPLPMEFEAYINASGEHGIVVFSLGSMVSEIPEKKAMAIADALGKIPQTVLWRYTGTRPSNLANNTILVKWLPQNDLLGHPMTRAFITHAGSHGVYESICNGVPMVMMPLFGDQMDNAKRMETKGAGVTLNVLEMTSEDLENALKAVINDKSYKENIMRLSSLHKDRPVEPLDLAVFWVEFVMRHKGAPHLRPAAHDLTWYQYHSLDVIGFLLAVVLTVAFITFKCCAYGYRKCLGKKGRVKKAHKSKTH
Experiment: co-IP; HEK293 stably expressing UGT1A9-myc/his, transiently transfected with the tagged partner; lysis buffer B (50 mM Tris-HCl pH 7.4, 150 mM NaCl, 1% Igepal, 1 mM DTT), 4°C; IP with purified anti-UGT1A (control rabbit IgG), immunoblot with anti-tag antibodies

- binding: binds
Molecule: FLAG-SH3KBP1 (from UniProt Q96B97 1-665)

- binding: binds
B1: HA-ACOT8 (protein, UniProt O14734 1-319)
chain: MSSPQAPEDGQGCGDRGDPPGDLRSVLVTTVLNLEPLDEDLFRGRHYWVPAKRLFGGQIVGQALVAAAKSVSEDVHVHSLHCYFVRAGDPKLPVLYQVERTRTGSSFSVRSVKAVQHGKPIFICQASFQQAQPSPMQHQFSMPTVPPPEELLDCETLIDQYLRDPNLQKRYPLALNRIAAQEVPIEIKPVNPSPLSQLQRMEPKQMFWVRARGYIGEGDMKMHCCVAAYISDYAFLGTALLPHQWQHKVHFMVSLDHSMWFHAPFRADHWMLYECESPWAGGSRGLVHGRLWRQDGVLAVTCAQEGVIRVKPQVSESKL

- binding: binds
B2: PHKA2-myc-FLAG (protein, UniProt P46019 1-1235)
chain: MRSRSNSGVRLDGYARLVQQTILCYQNPVTGLLSASHEQKDAWVRDNIYSILAVWGLGMAYRKNADRDEDKAKAYELEQNVVKLMRGLLQCMMRQVAKVEKFKHTQSTKDSLHAKYNTATCGTVVGDDQWGHLQVDATSLFLLFLAQMTASGLRIIFTLDEVAFIQNLVFYIEAAYKVADYGMWERGDKTNQGIPELNASSVGMAKAALEAIDELDLFGAHGGRKSVIHVLPDEVEHCQSILFSMLPRASTSKEIDAGLLSIISFPAFAVEDVNLVNVTKNEIISKLQGRYGCCRFLRDGYKTPREDPNRLHYDPAELKLFENIECEWPVFWTYFIIDGVFSGDAVQVQEYREALEGILIRGKNGIRLVPELYAVPPNKVDEEYKNPHTVDRVPMGKVPHLWGQSLYILSSLLAEGFLAAGEIDPLNRRFSTSVKPDVVVQVTVLAENNHIKDLLRKHGVNVQSIADIHPIQVQPGRILSHIYAKLGRNKNMNLSGRPYRHIGVLGTSKLYVIRNQIFTFTPQFTDQHHFYLALDNEMIVEMLRIELAYLCTCWRMTGRPTLTFPISRTMLTNDGSDIHSAVLSTIRKLEDGYFGGARVKLGNLSEFLTTSFYTYLTFLDPDCDEKLFDNASEGTFSPDSDSDLVGYLEDTCNQESQDELDHYINHLLQSTSLRSYLPPLCKNTEDRHVFSAIHSTRDILSVMAKAKGLEVPFVPMTLPTKVLSAHRKSLNLVDSPQPLLEKVPESDFQWPRDDHGDVDCEKLVEQLKDCSNLQDQADILYILYVIKGPSWDTNLSGQHGVTVQNLLGELYGKAGLNQEWGLIRYISGLLRKKVEVLAEACTDLLSHQKQLTVGLPPEPREKIISAPLPPEELTKLIYEASGQDISIAVLTQEIVVYLAMYVRAQPSLFVEMLRLRIGLIIQVMATELARSLNCSGEEASESLMNLSPFDMKNLLHHILSGKEFGVERSVRPIHSSTSSPTISIHEVGHTGVTKTERSGINRLRSEMKQMTRRFSADEQFFSVGQAASSSAHSSKSARSSTPSSPTGTSSSDSGGHHIGWGERQGQWLRRRRLDGAINRVPVGFYQRVWKILQKCHGLSIDGYVLPSSTTREMTPHEIKFAVHVESVLNRVPQPEYRQLLVEAIMVLTLLSDTEMTSIGGIIHVDQIVQMASQLFLQDQVSIGAMDTLEKDQATGICHFFYDSAPSGAYGTMTYLTRAVASYLQELLPNSGCQMQ
